Source: patent US20260055096A1, “AZOLE PESTICIDAL COMPOUNDS” (BASF SE, priority 2022, published 2026)
Some results were stated once for a whole list of compounds, not compound by compound.

Assays:
Format in all cases: in vivo
[1] = system: Orchid thrips (Dichromothrips corbetti); experiment: Example B.2: Action on orchid thrips (Dichromothrips corbetti), floral-immersion technique; settings: 300 ppm; 72 hours after treatment
[2] = system: boll weevil (Anthonomus grandis); experiment: Example B.3: Action on boll weevil (Anthonomus grandis), egg and larval mortality on insect diet; settings: 800 ppm; egg and larval mortality after 5 days
[3] = system: tobacco budworm (Heliothis virescens); experiment: Example B.5: Action on tobacco budworm (Heliothis virescens), egg and larval mortality on insect diet; settings: 800 ppm; egg and larval mortality after 5 days
[4] = system: Diamond back moth (Plutella xylostella); experiment: Example B.6: Action on diamond back moth (Plutella xylostella), cabbage leaf dip, 3rd instar larvae; settings: 300 ppm; 72 hours after treatment
Protocol: The active compound is dissolved at the desired concentration in a mixture of 1:1 (v/v) distilled water: acetone. Surfactant (Kinetic® HV) is added at a rate of 0.01% (v/v). The test solution is prepared at the day of use.
Leaves of cabbage were dipped in test solution and air-dried. Treated leaves were placed in petri dishes lined with moist filter paper and inoculated with ten 3rd instar larvae. Mortality was recorded 72 hours after treatment. Feeding damages were also recorded using a scale of 0-100%.

[5] = system: Southern armyworm (Spodoptera eridania), 2nd instar larvae; experiment: Example B.7: Action on southern armyworm (Spodoptera eridania), 2nd instar larvae on sprayed lima bean plants; settings: 300 ppm; 4 days after treatment
[6] = system: yellow fever mosquito (Aedes aegypti); settings: 800 ppm; larval mortality after 2 days

Row | Structure (SMILES) | mortality in comparison with untreated controls [1] | mortality in comparison with untreated controls [2] | mortality in comparison with untreated controls [3] | mortality in comparison with untreated controls [4] | mortality in comparison with untreated controls [5] | mortality in comparison with untreated controls [6]
1 | Cc1ccc(C(F)(F)F)c(N2C(=O)CSC2=NC(=O)Nc2ccc(-c3nc(NC(=O)c4ccc(OC(F)(F)F)cc4)n(C)n3)cc2)c1 [Example C-19] | at least 75% | at least 75% | at least 75% | at least 75% | at least 75% | 
2 | Cc1c(-c2ccc(NC(=O)N=C3SCC(=O)N3c3cc(C#N)ccc3C(C)C)cc2)nn(C)c1NC(=O)c1ccc(OC(F)(F)F)cc1 [Example C-23] |  | at least 75% | at least 75% | at least 75% | at least 75% | at least 50%
3 | Cc1ccc(C(C)C)c(N2C(=O)CS/C2=N\C(=O)Nc2ccc(-c3nc(NC(=O)c4ccc(OC(F)(F)F)cc4)n(C)n3)nc2)c1 [Example C-41] |  |  | at least 75% | at least 75% | at least 75% | 
4 | Cc1ccc(C(C)C)c(N2C(=O)CS/C2=N\C(=O)Nc2ccc(-c3nn(C)c(NC(=O)c4ccc(C#N)cc4)c3C)cc2F)c1 [Example C-46] |  | at least 75% | at least 75% | at least 75% | at least 75% | at least 50%
5 | Cc1ccc(C(C)C)c(N2C(=O)CS/C2=N\C(=O)Nc2ccc(-c3nn(C)c(NC(=O)c4ccc(C#N)cc4)c3C)cc2)c1 [Example C-47] |  | at least 75% | at least 75% | at least 75% | at least 75% | at least 50%
6 | Cc1ccc(C(C)C)c(N2C(=O)CS/C2=N\C(=O)Nc2ccc(-c3nn(C)c(NC(=O)c4ccc(C#N)cc4)c3C)cc2C)c1 [Example C-50] |  | at least 75% | at least 75% | at least 75% | at least 75% | at least 50%
7 | Cc1ccc(C(C)C)c(N2C(=O)CS/C2=N\C(=O)Nc2ccc(-c3nn(C)c(NC(=O)c4ccc(C#N)c(F)c4)c3C)cc2)c1 [Example C-51] |  | at least 75% | at least 75% | at least 75% | at least 75% | at least 50%
8 | Cc1ccc(C(C)C)c(N2C(=O)CS/C2=N\C(=O)Nc2ccc(-c3nn(C)c(NC(=O)c4ccc(OC(F)(F)F)cc4)c3C)cc2Cl)c1 [Example C-52] |  | at least 75% | at least 75% | at least 75% | at least 75% | at least 50%
9 | Cc1ccc(C(C)C)c(N2C(=O)CS/C2=N\C(=O)Nc2ccc(-c3nn(C)c(NC(=O)c4ccc(C#N)cc4)c3C)c(Cl)c2)c1 [Example C-53] |  | at least 75% | at least 75% | at least 75% | at least 75% | at least 50%
10 | Cc1ccc(C(C)C)c(N2C(=O)CS/C2=N\C(=O)Nc2ccc(-c3nn(C)c(N(C)C(=O)c4ccc(OC(F)(F)F)cc4)c3C)cc2Cl)c1 [Example C-57] |  | at least 75% | at least 75% | at least 75% | at least 75% | at least 50%
